Measured values taken from patent publication US5217864, “Replication initiator protein complex and methods of use thereof” (The Rockefeller University).
The exact form of at least one protein or probe is not confirmed. Negatives hold for the conditions tested. Where a protein sequence is shown, tags need not be part of it.

Biological target: T1, OTF1/NFIII (UniProt P14859)
T1 sequence (looked up, limits assumed): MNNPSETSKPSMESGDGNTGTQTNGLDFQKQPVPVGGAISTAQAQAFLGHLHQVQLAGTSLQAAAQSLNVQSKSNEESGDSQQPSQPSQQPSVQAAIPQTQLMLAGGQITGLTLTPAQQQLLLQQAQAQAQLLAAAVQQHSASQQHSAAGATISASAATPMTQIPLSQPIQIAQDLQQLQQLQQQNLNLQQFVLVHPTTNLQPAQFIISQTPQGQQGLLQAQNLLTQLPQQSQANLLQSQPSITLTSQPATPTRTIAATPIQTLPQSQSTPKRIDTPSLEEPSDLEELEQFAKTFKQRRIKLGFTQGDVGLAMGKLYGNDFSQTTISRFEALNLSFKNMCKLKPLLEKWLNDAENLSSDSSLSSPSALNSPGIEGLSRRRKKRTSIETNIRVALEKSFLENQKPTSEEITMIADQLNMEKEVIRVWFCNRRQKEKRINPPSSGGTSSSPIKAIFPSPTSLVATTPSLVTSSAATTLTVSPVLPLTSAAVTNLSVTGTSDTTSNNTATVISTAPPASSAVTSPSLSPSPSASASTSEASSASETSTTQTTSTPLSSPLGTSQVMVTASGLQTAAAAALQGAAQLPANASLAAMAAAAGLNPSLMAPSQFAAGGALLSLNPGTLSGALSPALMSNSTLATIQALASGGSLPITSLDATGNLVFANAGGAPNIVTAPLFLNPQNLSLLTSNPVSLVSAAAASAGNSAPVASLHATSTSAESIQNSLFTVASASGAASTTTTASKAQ
Assay: EMSA
Details: data not shown; reverse orientation; purified native protein; only the site is given

ATTGACAT (double strand) [related OTF1-like site near 3' end of 280 bp fragment]
binding result: no binding
